# Some of the results follow.
# Chains of the proteins cited; added tags and fusions are not shown. Lines headed by an entry give the natural chain unless they say otherwise; changes in a name come on top.
# UniProt Q9NWB6: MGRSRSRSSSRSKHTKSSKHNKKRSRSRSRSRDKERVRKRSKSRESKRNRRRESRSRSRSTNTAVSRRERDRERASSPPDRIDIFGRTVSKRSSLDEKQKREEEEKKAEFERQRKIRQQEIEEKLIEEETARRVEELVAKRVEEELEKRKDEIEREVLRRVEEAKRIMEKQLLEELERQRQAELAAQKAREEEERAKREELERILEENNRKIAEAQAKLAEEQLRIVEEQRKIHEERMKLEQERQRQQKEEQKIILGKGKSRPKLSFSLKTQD
# UniProt P08758: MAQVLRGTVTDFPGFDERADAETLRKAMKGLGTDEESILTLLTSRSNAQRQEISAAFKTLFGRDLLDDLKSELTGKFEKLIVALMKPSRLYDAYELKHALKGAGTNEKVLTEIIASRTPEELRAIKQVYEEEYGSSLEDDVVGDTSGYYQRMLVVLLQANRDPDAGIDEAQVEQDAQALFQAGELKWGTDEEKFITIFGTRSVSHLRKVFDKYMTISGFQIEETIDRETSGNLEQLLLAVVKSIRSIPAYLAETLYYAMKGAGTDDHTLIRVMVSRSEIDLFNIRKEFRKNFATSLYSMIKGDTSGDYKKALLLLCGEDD
# UniProt P53367: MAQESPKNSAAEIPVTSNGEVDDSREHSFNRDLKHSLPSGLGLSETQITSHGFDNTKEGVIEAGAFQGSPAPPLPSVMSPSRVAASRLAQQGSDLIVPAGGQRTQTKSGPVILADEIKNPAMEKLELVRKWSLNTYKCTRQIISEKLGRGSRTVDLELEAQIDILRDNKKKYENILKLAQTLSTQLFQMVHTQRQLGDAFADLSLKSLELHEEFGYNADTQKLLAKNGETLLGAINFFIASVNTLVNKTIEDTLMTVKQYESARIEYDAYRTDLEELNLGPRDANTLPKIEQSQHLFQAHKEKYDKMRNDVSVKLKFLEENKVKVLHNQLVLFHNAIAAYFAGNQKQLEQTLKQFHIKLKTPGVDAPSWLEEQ
# UniProt Q96CW1: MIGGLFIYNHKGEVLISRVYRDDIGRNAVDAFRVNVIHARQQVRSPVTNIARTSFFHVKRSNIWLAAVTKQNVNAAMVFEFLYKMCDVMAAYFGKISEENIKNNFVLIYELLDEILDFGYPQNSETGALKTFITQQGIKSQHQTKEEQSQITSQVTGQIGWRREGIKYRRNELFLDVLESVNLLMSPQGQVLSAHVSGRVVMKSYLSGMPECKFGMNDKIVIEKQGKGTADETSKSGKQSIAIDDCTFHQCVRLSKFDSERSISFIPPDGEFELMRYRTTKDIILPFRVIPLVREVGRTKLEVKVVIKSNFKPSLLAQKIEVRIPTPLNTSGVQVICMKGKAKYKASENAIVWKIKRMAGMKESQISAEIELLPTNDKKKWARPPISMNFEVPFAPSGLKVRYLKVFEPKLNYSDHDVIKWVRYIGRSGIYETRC
# UniProt Q9HC16: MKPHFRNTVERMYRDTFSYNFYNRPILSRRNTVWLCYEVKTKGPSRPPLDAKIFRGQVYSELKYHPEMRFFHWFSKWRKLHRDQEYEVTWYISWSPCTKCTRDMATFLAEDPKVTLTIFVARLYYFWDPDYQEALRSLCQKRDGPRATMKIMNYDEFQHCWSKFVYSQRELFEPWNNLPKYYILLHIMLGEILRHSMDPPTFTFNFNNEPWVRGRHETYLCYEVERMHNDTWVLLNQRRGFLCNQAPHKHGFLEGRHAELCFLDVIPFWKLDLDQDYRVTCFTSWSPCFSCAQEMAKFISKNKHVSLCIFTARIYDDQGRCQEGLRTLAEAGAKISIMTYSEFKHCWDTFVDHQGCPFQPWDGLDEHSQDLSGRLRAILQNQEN
# UniProt Q01484: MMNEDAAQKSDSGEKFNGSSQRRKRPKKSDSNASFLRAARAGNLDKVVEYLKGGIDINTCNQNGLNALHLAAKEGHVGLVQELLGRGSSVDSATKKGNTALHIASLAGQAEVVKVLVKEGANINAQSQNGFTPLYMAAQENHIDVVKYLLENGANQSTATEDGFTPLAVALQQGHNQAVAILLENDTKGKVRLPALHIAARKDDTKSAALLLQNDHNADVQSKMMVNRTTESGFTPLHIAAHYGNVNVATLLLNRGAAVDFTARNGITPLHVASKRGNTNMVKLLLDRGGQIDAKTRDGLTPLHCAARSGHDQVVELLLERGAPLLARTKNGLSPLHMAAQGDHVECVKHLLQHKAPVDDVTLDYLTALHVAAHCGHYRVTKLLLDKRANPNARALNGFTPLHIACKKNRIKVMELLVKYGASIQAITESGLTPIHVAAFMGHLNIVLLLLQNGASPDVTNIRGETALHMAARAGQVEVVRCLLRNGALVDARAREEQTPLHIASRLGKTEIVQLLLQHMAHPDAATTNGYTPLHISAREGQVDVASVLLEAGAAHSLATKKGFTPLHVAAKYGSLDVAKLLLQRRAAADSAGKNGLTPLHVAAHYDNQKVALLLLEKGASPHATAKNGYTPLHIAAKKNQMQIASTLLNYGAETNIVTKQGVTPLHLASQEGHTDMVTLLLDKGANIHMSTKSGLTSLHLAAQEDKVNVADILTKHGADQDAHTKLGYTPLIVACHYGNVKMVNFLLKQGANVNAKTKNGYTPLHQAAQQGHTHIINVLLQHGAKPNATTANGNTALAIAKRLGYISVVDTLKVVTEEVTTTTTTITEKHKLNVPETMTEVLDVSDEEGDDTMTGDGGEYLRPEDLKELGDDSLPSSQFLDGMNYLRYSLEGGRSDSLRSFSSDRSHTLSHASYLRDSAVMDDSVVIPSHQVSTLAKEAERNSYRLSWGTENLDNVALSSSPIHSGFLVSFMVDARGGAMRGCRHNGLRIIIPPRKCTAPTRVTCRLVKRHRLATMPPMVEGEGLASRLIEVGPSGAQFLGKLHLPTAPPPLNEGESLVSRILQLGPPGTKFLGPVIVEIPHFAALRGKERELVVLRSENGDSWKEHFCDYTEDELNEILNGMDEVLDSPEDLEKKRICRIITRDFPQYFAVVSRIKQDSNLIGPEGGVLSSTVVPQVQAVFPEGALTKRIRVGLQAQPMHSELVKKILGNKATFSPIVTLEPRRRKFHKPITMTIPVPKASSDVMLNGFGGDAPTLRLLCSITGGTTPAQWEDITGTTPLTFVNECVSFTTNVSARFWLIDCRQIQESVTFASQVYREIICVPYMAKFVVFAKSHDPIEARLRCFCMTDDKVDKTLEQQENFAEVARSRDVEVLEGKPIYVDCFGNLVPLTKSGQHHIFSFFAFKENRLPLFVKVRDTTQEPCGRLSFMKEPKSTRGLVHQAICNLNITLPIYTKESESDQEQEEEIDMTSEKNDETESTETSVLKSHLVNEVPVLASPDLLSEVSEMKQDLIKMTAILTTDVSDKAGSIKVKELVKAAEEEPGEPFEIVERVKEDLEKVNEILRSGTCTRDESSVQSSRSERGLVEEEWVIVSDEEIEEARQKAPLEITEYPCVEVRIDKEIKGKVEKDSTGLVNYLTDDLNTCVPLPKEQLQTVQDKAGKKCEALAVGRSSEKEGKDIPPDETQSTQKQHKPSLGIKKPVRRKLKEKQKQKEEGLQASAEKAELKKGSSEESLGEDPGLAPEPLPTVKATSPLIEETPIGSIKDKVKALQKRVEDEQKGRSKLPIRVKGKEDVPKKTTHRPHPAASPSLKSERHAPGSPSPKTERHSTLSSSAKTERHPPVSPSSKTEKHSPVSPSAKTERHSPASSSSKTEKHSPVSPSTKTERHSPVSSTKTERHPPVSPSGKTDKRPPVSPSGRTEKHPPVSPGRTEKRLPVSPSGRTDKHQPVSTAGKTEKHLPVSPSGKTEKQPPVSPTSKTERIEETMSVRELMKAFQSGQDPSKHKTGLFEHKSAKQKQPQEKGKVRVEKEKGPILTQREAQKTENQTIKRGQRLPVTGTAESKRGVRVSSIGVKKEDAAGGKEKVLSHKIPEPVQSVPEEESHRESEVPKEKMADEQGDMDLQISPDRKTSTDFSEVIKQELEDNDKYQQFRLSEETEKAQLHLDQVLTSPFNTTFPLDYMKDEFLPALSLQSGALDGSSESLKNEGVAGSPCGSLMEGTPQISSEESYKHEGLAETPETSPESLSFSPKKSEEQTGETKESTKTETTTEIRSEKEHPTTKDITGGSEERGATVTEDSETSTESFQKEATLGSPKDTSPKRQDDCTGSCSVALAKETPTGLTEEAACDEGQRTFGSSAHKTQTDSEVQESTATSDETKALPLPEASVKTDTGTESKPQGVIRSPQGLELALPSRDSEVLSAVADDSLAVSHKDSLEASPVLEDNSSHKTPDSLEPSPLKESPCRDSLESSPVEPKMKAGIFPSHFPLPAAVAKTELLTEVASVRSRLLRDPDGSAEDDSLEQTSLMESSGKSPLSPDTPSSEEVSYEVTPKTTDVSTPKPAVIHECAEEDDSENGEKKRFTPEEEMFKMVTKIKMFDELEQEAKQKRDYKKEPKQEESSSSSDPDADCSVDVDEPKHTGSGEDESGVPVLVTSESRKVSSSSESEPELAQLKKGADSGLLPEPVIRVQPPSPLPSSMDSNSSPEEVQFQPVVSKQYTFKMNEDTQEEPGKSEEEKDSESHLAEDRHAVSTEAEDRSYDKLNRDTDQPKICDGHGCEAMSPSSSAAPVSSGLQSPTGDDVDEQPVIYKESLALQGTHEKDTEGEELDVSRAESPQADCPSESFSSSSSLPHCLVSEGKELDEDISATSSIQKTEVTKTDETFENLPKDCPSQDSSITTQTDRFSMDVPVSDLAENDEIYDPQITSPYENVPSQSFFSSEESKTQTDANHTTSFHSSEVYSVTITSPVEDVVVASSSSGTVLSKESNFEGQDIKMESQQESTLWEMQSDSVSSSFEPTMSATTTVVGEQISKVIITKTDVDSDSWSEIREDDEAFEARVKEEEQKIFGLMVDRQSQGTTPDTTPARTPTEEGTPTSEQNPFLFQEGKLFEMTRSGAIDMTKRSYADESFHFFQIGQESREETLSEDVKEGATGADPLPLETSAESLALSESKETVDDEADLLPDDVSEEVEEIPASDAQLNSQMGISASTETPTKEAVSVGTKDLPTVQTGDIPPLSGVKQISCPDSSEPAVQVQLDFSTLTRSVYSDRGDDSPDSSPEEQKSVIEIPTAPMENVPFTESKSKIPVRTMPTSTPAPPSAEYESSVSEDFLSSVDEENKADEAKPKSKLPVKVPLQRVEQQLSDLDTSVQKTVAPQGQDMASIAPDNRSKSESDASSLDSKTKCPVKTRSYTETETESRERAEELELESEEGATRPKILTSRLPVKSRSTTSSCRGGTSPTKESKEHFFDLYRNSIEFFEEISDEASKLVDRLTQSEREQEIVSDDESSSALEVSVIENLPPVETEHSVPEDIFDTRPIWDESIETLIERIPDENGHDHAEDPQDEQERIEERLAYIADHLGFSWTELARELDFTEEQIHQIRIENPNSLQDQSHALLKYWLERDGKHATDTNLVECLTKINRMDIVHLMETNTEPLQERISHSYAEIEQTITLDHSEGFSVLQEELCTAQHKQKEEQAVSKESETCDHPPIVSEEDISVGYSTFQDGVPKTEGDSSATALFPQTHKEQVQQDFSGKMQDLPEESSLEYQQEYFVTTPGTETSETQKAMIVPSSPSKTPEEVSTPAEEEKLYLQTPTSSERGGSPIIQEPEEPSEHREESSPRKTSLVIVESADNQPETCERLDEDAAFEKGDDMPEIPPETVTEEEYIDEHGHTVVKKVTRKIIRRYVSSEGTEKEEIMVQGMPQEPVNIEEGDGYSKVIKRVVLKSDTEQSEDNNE
# UniProt Q06481, whole entry, looked up: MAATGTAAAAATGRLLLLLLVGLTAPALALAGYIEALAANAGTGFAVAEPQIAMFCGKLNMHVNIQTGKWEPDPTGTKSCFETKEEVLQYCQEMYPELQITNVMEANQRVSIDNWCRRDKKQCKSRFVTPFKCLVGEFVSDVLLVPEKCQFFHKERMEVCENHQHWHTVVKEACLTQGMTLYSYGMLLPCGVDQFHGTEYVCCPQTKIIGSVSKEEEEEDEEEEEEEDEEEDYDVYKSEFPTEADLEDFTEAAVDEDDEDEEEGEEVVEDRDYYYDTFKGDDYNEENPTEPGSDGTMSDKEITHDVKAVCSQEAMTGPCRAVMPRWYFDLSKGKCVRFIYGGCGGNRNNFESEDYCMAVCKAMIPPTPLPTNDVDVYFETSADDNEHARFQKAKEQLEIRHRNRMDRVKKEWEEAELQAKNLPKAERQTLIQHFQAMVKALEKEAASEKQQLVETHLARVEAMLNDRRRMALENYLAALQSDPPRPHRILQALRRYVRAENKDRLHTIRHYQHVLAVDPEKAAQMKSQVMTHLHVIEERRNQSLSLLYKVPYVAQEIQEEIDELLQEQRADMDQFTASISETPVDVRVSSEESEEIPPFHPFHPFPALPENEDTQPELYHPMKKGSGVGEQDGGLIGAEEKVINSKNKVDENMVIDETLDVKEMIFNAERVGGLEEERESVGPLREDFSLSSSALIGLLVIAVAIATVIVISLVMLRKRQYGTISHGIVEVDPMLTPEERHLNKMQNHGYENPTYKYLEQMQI
# Legend:
# Assay in all cases: log2 fold change, soluble protein after heating vs DMSO (PISA); higher = thermal stabilisation; K562 cells, 10 uM, 30 min; active = over 0.2 and 3.5 SD of the protein, either way, in both replicates (recomputed)
# [1] = compound: CS(=O)(=O)c1ccc(-c2cnc(N)c(C(=O)Nc3ccccc3)n2)cc1
# Procedure, shortened: (§1)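 Soluble protein was defined as the supernatant after 21,000xg for 90 min. It came from K562 cells at 2×10^6 cells/mL given 10 μM compound for 30 min, heated in aliquots for 3 min across 48°C-58°C, pooled, and extracted in PBS with 0.5% NP-40 at 4°C, and was quantified by TMTpro 16plex LC-MS/MS with equalised channel sums. Thermal stability against control samples, from duplicates, is reported as log2 fold change.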
# [2] = compound: C[C@@H]1COCCN1C2=NC(=NC(=C2)C3(CC3)S(=O)(=O)C)C4=C5C=CNC5=CC=C4
# Procedure, shortened: as §1
# [3] = compound: C[C@H](C1=CC=C(C=C1)C(=O)NC2=C3C=CNC3=NC=C2)N
# Procedure, shortened: as §1
# duvelisib = compound: C[C@H](Nc1ncnc2nc[nH]c12)c1cc2cccc(Cl)c2c(=O)n1-c1ccccc1 [duvelisib]
# Procedure, shortened: as §1
# gandotinib = compound: Cc1cc(Nc2cc(CN3CCOCC3)c3nc(C)c(Cc4ccc(Cl)cc4F)n3n2)n[nH]1 [gandotinib]
# Procedure, shortened: as §1
# tozasertib = compound: Cc1cc(Nc2cc(N3CCN(C)CC3)nc(Sc3ccc(NC(=O)C4CC4)cc3)n2)n[nH]1 [tozasertib]
# Procedure, shortened: as §1
# [4] = compound: Cc1cc(SCc2sc(-c3ccc(C(F)(F)F)cc3)nc2C)ccc1OCC(=O)O
# Procedure, shortened: as §1
# ispinesib = compound: Cc1ccc(C(=O)N(CCCN)[C@@H](c2nc3cc(Cl)ccc3c(=O)n2Cc2ccccc2)C(C)C)cc1 [ispinesib]
# Procedure, shortened: as §1
# bafetinib = compound: Cc1ccc(NC(=O)c2ccc(CN3CC[C@H](N(C)C)C3)c(C(F)(F)F)c2)cc1Nc1nccc(-c2cncnc2)n1 [bafetinib]
# Procedure, shortened: as §1
# [5] = compound: Cc1cccc(CC(=O)N2CCc3c2ccc(-c2cn(C)c4ncnc(N)c24)c3F)n1
# Procedure, shortened: as §1
# nilotinib = compound: Cc1cn(-c2cc(NC(=O)c3ccc(C)c(Nc4nccc(-c5cccnc5)n4)c3)cc(C(F)(F)F)c2)cn1 [nilotinib]
# Procedure, shortened: as §1
# [6] = compound: Cc1nc(Nc2n[nH]c3c2CN(C(=O)N[C@H](CN(C)C)c2ccccc2)C3(C)C)c2sccc2n1
# Procedure, shortened: as §1
# dasatinib = compound: Cc1nc(Nc2ncc(C(=O)Nc3c(C)cccc3Cl)s2)cc(N2CCN(CCO)CC2)n1 [dasatinib]
# Procedure, shortened: as §1
# [7] = compound: Cc1ncc(-c2ccnc(Nc3ccc(S(C)(=O)=O)cc3)n2)n1C(C)C
# Procedure, shortened: as §1
# [8] = compound: Cn1cc(-c2ccc3c(c2)CCN3C(=O)Cc2cccc(C(F)(F)F)c2)c2c(N)ncnc21
# Procedure, shortened: as §1
# [9] = compound: Cn1cc(-c2ccc3nnc(C(F)(F)c4ccc5ncccc5c4)n3n2)cn1
# Procedure, shortened: as §1
# tipifarnib = compound: Cn1cncc1[C@@](N)(c1ccc(Cl)cc1)c1ccc2c(c1)c(-c1cccc(Cl)c1)cc(=O)n2C [tipifarnib]
# Procedure, shortened: as §1
# mubritinib = compound: FC(F)(F)c1ccc(/C=C/c2nc(COc3ccc(CCCCn4ccnn4)cc3)co2)cc1 [mubritinib]
# Procedure, shortened: as §1
# crizotinib = compound: C[C@@H](Oc1cc(-c2cnn(C3CCNCC3)c2)cnc1N)c1c(Cl)ccc(F)c1Cl [crizotinib]
# Procedure, shortened: as §1
# doramapimod = compound: Cc1ccc(-n2nc(C(C)(C)C)cc2NC(=O)Nc2ccc(OCCN3CCOCC3)c3ccccc23)cc1 [doramapimod]
# Procedure, shortened: as §1
Target,log2 fold change [1],log2 fold change [2],log2 fold change [3],log2 fold change (duvelisib),log2 fold change (gandotinib),log2 fold change (tozasertib),log2 fold change [4],log2 fold change (ispinesib),log2 fold change (bafetinib),log2 fold change [5],log2 fold change (nilotinib),log2 fold change [6],log2 fold change (dasatinib),log2 fold change [7],log2 fold change [8],log2 fold change [9],log2 fold change (tipifarnib),log2 fold change (mubritinib),log2 fold change (crizotinib),log2 fold change (doramapimod)
ARHGEF18 (UniProt Q6ZSZ5),inactive: -0.02,inactive: 0.067,inactive: 0.17,inactive: 0.051,inactive: 0.055,inactive: 0.071,inactive: -0.034,inactive: -0.07,inactive: 0.132,inactive: -0.16,inactive: -0.373,inactive: 0.181,inactive: 0.057,inactive: -0.163,inactive: -0.124,inactive: -0.039,inactive: 0.034,inactive: -0.213,,
ARFGAP2 (UniProt Q8N6H7),inactive: -0.04,inactive: 0.062,inactive: 0.007,,inactive: -0.101,,inactive: 0.066,inactive: 0.039,inactive: -0.006,inactive: -0.008,inactive: -0.045,inactive: -0.063,inactive: -0.096,inactive: 0.035,inactive: -0.024,inactive: -0.024,inactive: -0.059,inactive: 0.041,inactive: 0.042,inactive: -0.009
ARGLU1 (UniProt Q9NWB6),inactive: -0.038,inactive: -0.039,inactive: -0.344,,inactive: 0.212,,inactive: -0.027,inactive: 0.242,inactive: 0.165,inactive: -0.058,inactive: 0.184,active: -1.13,inactive: 0.146,inactive: -0.027,inactive: -0.046,inactive: -0.031,inactive: 0.043,inactive: -0.057,inactive: -0.008,inactive: 0.047
ANXA5 (UniProt P08758),inactive: 0.03,inactive: 0.108,inactive: -0.002,,inactive: -0.083,,inactive: 0.052,inactive: 0.006,inactive: 0.019,inactive: 0.058,inactive: -0.015,inactive: -0.052,inactive: -0.079,inactive: 0.006,inactive: 0.017,inactive: 0.025,inactive: -0.061,inactive: 0.009,inactive: 0.045,inactive: -0.059
ARFIP1 isoform 2 (UniProt P53367),inactive: -0.03,inactive: 0.047,,,inactive: -0.112,,inactive: 0.081,,inactive: -0.281,inactive: -0.195,inactive: -0.147,inactive: -0.049,inactive: -0.316,inactive: -0.013,,,inactive: -0.024,inactive: -0.004,inactive: -0.266,inactive: 0.087
AP2A2 isoform 2 (UniProt O94973),inactive: 0.022,inactive: -0.033,inactive: -0.186,,inactive: -0.057,,inactive: -0.021,inactive: 0.024,inactive: 0.02,inactive: 0.031,inactive: -0.027,inactive: 0.009,inactive: 0.062,inactive: -0.018,inactive: 0.006,inactive: -0.074,inactive: -0.006,inactive: 0.035,inactive: -0.076,inactive: 0.03
AP2M1 (UniProt Q96CW1),inactive: 0.018,inactive: -0.04,inactive: -0.193,,inactive: -0.002,,inactive: -0.007,inactive: 0.044,inactive: 0.042,inactive: -0.012,inactive: 0.012,inactive: 0.031,inactive: 0.048,inactive: -0.02,inactive: -0.013,inactive: -0.004,inactive: 0.02,inactive: -0.035,inactive: -0.066,inactive: 0.029
APOBEC3G (UniProt Q9HC16),inactive: -0.065,inactive: -0.165,,,,,inactive: 0.102,inactive: -0.01,inactive: -0.016,,inactive: 0.028,inactive: 0.079,inactive: 0.075,inactive: 0.028,,inactive: -0.042,inactive: -0.012,inactive: 0.03,inactive: 0.059,inactive: 0.023
AP2B1 isoform 2 (UniProt P63010),inactive: 0.022,inactive: -0.005,inactive: -0.161,,inactive: 0.016,,inactive: 0.007,inactive: 0.014,inactive: 0.024,inactive: -0.01,inactive: -0.019,inactive: 0.019,inactive: 0.035,inactive: -0.032,inactive: -0.029,inactive: 0.004,inactive: -0.014,inactive: -0.01,inactive: -0.029,inactive: -0.006
APOB (UniProt P04114),inactive: 0.066,inactive: 0.083,inactive: -0.203,,inactive: -0.198,,inactive: 0.007,active: -0.55,inactive: -0.316,inactive: 0.032,inactive: -0.132,inactive: 0.013,inactive: -0.213,inactive: 0.051,inactive: 0.071,inactive: -0.021,inactive: -0.203,inactive: 0.011,inactive: -0.443,inactive: -0.288
ANK2 (UniProt Q01484),inactive: 0.066,,inactive: -0.005,,inactive: -0.092,,inactive: 0.089,inactive: -0.188,inactive: -0.281,inactive: -0.034,inactive: -0.265,inactive: 0.041,inactive: -0.277,inactive: -0.042,inactive: 0.012,inactive: 0.01,inactive: 0.034,inactive: -0.141,inactive: 0.062,inactive: 0.055
AP4S1 (UniProt Q9Y587),inactive: -0.027,inactive: 0.065,inactive: 0.133,,,,inactive: 0.013,,inactive: 0.068,,inactive: -0.015,inactive: -0.016,inactive: -0.036,inactive: 0.072,inactive: -0.103,,inactive: 0.076,inactive: -0.013,inactive: -0.028,inactive: -0.088
ANAPC2 (UniProt Q9UJX6),inactive: -0.025,inactive: 0.034,inactive: 0.035,,inactive: -0.044,,inactive: 0.028,inactive: -0.02,inactive: -0.048,inactive: 0.024,inactive: -0.004,inactive: -0.053,inactive: -0.04,inactive: 0.003,inactive: -0.005,inactive: -0.036,inactive: -0.005,inactive: 0.049,inactive: -0.084,inactive: 0.022
APLP2 (UniProt Q06481),inactive: 0,inactive: -0.012,inactive: -0.035,,inactive: 0.117,,inactive: -0.049,inactive: 0.16,inactive: 0.054,inactive: -0.063,inactive: 0.156,inactive: -0.144,inactive: 0.118,inactive: 0.052,inactive: -0.007,inactive: -0.164,inactive: -0.01,inactive: -0.011,inactive: 0.032,inactive: 0.049
ANKFY1 isoform 4 (UniProt Q9P2R3),inactive: -0.098,inactive: -0.24,inactive: 0.085,,inactive: -0.029,inactive: 0.122,,inactive: -0.171,inactive: 0,inactive: 0.107,inactive: 0.088,inactive: -0.313,,inactive: 0.027,inactive: -0.01,inactive: -0.011,inactive: 0.014,inactive: -0.057,inactive: -0.007,inactive: 0.048
ANKZF1 (UniProt Q9H8Y5),inactive: 0.031,inactive: -0.135,inactive: 0.174,,inactive: 0.007,,inactive: -0.068,inactive: -0.349,inactive: 0.104,inactive: -0.047,inactive: -0.151,inactive: -0.29,inactive: -0.04,inactive: 0.018,inactive: -0.005,inactive: -0.126,inactive: 0.026,inactive: -0.074,inactive: -0.037,inactive: -0.059
ARHGAP6 (UniProt O43182),inactive: 0.002,inactive: -0.071,,inactive: -0.008,,inactive: 0.052,inactive: 0.049,inactive: -0.293,,,inactive: 0.122,inactive: -0.226,inactive: -0.19,inactive: 0.254,,inactive: -0.2,,inactive: -0.073,inactive: -0.002,inactive: 0.082
ARFIP1 (UniProt P53367),inactive: 0.833,inactive: 0.026,inactive: -0.061,,inactive: -0.223,,inactive: 0.014,inactive: -0.232,inactive: -0.198,inactive: 0.077,inactive: -0.177,inactive: -0.148,inactive: -0.113,inactive: 0.05,inactive: 0.069,active: 0.461,inactive: -0.115,inactive: -0.054,inactive: -0.309,inactive: 0
ARHGAP21 (UniProt Q5T5U3),inactive: -0.029,inactive: -0.514,inactive: 0.326,inactive: 0.007,inactive: 0.077,,inactive: -0.148,inactive: -0.158,inactive: 0.037,inactive: -0.103,inactive: -0.133,inactive: 0.198,inactive: 0.192,inactive: 0.106,inactive: -0.009,inactive: 0.073,,inactive: -0.193,,

# An excerpt from above, reduced to log2 fold change [5] and log2 fold change (tipifarnib):
Target	log2 fold change [5]	log2 fold change (tipifarnib)
ANK2 (UniProt Q01484)	inactive: -0.034	inactive: 0.034
AP4S1 (UniProt Q9Y587)		inactive: 0.076

# From the supplement of paper PMC10849652
